This test has as its target T1, endogenous coactivator-associated arginine methyltransferase 1 (CARM1) (human (endogenous in MKN28 and MKN1)) (UniProt Q86X55).
T1 sequence: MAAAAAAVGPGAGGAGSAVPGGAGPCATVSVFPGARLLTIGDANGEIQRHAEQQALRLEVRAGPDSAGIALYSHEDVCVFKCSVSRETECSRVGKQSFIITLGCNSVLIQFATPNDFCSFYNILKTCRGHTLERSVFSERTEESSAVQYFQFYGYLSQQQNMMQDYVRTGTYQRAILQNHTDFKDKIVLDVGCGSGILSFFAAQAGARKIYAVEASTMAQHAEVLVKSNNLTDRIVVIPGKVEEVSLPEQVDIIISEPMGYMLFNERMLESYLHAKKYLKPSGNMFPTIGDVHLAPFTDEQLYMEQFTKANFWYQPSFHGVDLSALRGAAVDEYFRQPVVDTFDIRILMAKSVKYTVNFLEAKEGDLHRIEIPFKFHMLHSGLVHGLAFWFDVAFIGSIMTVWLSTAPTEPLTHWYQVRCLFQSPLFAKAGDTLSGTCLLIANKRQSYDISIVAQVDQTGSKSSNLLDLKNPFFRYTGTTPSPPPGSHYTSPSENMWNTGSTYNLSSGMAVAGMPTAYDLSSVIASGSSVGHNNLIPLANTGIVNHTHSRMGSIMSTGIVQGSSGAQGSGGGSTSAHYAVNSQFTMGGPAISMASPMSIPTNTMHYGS
Briefly: co-IP; endogenous CARM1 and ACTR in control and exon 7-deleted MKN1 cells, in MKN28 cells overexpressing LRRFIP2 variant 2 or 3, and in MKN1 cells overexpressing LRRFIP2 variant 2; IP buffer (50 mM Tris pH 7.4, 150 mM NaCl, 1% Triton X-100, 0.5% sodium deoxycholate, 2 mM EDTA, 10% glycerol), Dynabeads.

By UniProt entry, the sequences of proteins in these tests, tags left out.
UniProt Q9Y6Q9: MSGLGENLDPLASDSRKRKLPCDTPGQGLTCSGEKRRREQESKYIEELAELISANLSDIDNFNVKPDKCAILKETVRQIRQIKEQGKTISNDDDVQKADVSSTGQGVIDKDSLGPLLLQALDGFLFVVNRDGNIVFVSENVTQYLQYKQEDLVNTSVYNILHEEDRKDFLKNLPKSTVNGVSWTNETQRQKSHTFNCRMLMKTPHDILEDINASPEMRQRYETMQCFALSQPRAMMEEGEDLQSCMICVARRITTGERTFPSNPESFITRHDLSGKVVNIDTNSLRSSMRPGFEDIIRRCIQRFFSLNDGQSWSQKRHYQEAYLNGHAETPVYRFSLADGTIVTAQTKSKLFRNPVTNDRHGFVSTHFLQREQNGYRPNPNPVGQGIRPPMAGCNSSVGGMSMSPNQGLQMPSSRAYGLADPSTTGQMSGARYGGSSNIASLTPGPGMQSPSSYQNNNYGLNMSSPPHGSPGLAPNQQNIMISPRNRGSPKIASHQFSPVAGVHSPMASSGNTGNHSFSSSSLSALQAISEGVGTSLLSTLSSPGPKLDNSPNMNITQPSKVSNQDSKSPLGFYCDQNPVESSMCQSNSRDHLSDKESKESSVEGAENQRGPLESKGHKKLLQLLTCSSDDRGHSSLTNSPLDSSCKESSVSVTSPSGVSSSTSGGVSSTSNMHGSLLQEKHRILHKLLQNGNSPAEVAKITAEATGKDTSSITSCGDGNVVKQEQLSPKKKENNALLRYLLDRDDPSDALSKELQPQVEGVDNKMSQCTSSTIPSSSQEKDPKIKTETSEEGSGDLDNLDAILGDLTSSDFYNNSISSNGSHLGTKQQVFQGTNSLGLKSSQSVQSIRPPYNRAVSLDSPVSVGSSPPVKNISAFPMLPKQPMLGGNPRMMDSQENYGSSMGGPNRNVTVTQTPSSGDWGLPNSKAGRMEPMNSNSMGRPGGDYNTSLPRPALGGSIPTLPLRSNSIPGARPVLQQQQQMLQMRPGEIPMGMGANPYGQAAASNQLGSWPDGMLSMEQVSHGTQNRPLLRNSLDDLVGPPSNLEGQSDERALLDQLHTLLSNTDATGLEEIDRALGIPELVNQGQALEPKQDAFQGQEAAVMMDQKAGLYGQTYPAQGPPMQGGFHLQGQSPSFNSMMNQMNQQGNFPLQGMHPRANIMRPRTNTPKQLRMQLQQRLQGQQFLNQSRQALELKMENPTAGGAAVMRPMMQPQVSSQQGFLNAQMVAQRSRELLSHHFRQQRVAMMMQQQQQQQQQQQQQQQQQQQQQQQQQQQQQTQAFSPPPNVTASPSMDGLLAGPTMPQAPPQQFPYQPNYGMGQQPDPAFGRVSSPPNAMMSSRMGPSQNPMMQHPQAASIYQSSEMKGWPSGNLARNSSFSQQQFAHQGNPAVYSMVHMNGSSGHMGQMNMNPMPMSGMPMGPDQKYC

These are yes or no findings as the source states them, for the method shown. Binding seen in cells or lysates may run through a third protein. Some entries that bind do so weakly or less than the wild type.

As to “endogenous ACTR/SRC3/AIB1/NCOA3 (p160 coactivator) (from UniProt Q9Y6Q9 1-1424)”, the binding entry is “binds”.
